Reference: paper PMC7404038, “Chaperone-Like Activity of HSPB5: The Effects of Quaternary Structure Dynamics and Crowding” (International Journal of Molecular Sciences, 2020)
These are yes or no findings as the source states them, for the method shown. Some binding calls cover weakened binding; strength is not graded here. For part of these data: Where a sequence is shown, tags or fusion partners need not be part of it.

T1: Ca2+-depleted α-lactalbumin, P00711
T1 chain: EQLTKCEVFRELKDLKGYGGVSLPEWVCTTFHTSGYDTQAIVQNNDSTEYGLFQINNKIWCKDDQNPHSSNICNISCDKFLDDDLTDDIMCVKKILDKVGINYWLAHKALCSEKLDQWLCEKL

B1: Human full-length untagged HSPB5 (αB-crystallin) (natural protein, UniProt P02511 1-175, looked up)
chain: MDIAIHHPWIRRPFFPFHSPSRLFDQFFGEHLLESDLFPTSTSLSPFYLRPPSFLRAPSWFDTGLSEMRLEKDRFSVNLDVKHFSPEELKVKVLGDVIEVHGKHEERQDEHGFISREFHRKYRIPADVDPLTITSSLSSDGVLTVNGPRKQVSGPERTIPITREEKPAVTAAPKK
notes: αB-crystallin (HSPB5), human, full length, untagged; subunit mass 20.2 kDa as printed; Polydisperse oligomer whose size depends on concentration, temperature and crowding; the preparation was a gift of N. Sluchanko; also called the chaperone; source: expressed and purified as described earlier [104]
B2: Ca2+-depleted α-lactalbumin, P00711 20-142 (protein)
chain: T1 chain

Tests used:
[1] = biological target: T1, Ca2+-depleted α-lactalbumin, P00711; assay: AUC; sedimentation velocity, αLa 0.3 mg/mL with HSPB5 0-0.03 mg/mL, 0.1 M Na-phosphate buffer, pH 6.8, 10 mM NaCl, 20 mM DTT, 37 °C, 60,000 rpm, absorbance at 280 nm; both purified; conditions: remark: other sources report otherwise
[2] = biological target: T1, Ca2+-depleted α-lactalbumin, P00711; assay: asymmetric field flow fractionation; αLa after 3 min incubation at 37 °C in the presence of 20 mM DTT, followed during 30 min; both purified; conditions: remark: other sources report otherwise

Binder | binding [1] | binding [2]
B1 | binds | –
B2 | binds | binds
